Measurements reported in PubChem BioAssay AID504804 (Drosophila RNAi Screening Center, 2011)

Screen: 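Knock-downs shielding fly cells from apoptosis caused by DNA damage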 (primary screen)
Cells: Drosophila Kc cells
Reagent: long dsRNA against Drosophila genes, 0.5 µg dsRNA per well
Duration: 96 h (48 h knock-down, then 48 h drug)
Challenge: doxorubicin 5 µg/ml for 48 h, added 48 h after dsRNA
Measured: 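Viability measured as cellular ATP by luminescence after 48 h knock-down then 48 h doxorubicin at 5 µg/ml; unnormalised plate counts for each replicate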
Direction: raw ATP luminescence: higher = more viable cells, protection from doxorubicin
Rule for the call: 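Active when both duplicate wells lie at least 2 SD above the plate mean and protection is confirmed by rescreening and independent dsRNAs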
In all, the deposit lists about 19,000 reagents; this is a random part of those with a known target gene and a result. In the full data, 47 (0.25%) are marked active. 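Signals are raw, not normalised; exact z-scores behind calls not deposited; actives needed confirmation, so some wells reaching 2 SD are inactive.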 A number with no mark means an inactive call. A plus sign joins genes that one reagent is predicted to hit.

| Target gene | dsRNA | raw ATP luminescence, replicate 1 | raw ATP luminescence, replicate 2 |
| --- | --- | --- | --- |
| CG8785 | DRSC07266 | 65963 | 62407 |
| CG14006 | DRSC02338 | 45683 | 40390 |
| Tdrd3 (Tudor domain containing 3) | DRSC10016 | 80617 | 62697 |
| CG7322 | DRSC20036 | 2.76e5 | 3.10e5 |
| CG34296 | DRSC13961 | 2.25e5 | 2.50e5 |
| Hsp23 (Heat shock protein 23) | DRSC11188 | 32910 | 35280 |
| CG4641 (retired record) | DRSC10439 | 41583 | 34530 |
| CheB74a (Chemosensory protein B 74a) | DRSC09503 | 67907 | 92477 |
| Orp8 (Oxysterol-binding protein-related protein 8) | DRSC15110 | 37690 | 46380 |
| Orp8 (Oxysterol-binding protein-related protein 8) | DRSC15712 | 41427 | 29837 |
| cola + swif | DRSC06826 | 64147 | 71643 |
| CG12479 | DRSC19459 | 3.05e5 | 3.18e5 |
| CG32633 | DRSC18987 | 2.52e5 | 2.37e5 |
| ms(3)76Ba (male sterile (3) 76Ba) | DRSC10091 | 79733 | 49870 |
| CG15023 | DRSC08477 | 69957 | 65733 |
| Hcs (Holocarboxylase synthetase) | DRSC12070 | 89570 | 61957 |
| Hcs (Holocarboxylase synthetase) | DRSC12256 | 58907 | 70983 |
| Obp56c (Odorant-binding protein 56c) | DRSC06552 | 2.02e5 | 2.22e5 |
| Pef (Peflin) | DRSC06695 | 63290 | 58987 |
| Hacl (2-hydroxyacyl-CoA lyase) | DRSC06061 | 54947 | 55873 |
| CG14563 | DRSC11724 | 23943 | 63233 |
| ssp2 (short spindle 2) | DRSC11052 | 21250 | 21517 |
| CG14971 | DRSC08430 | 33187 | 32410 |
| Cpr97Ea (Cuticular protein 97Ea) | DRSC15974 | 51870 | 38930 |
| ND4 (retired record) | DRSC21269 | 3.24e5 | 2.85e5 |
| CG5023 | DRSC15697 | 35650 | 35420 |
| Inx7 (Innexin 7) | DRSC18784 | 56620 | 40570 |
| CG15256 | DRSC01940 | 74727 | 67513 |
| hng2 (hinge2) | DRSC16412 | 62410 | 58073 |
| CG9951 | DRSC11105 | 26610 | 24950 |
| eIF4E3 (eukaryotic translation initiation factor 4E3) | DRSC10952 | 38037 | 32977 |
| CG3223 | DRSC15468 | 61097 | 61027 |
| COX7AL2 (Cytochrome c oxidase subunit 7A-like 2) | DRSC00099 | 2.34e5 | 2.70e5 |
| PolD2 (DNA polymerase delta subunit 2) | DRSC08147 | 63667 | 54277 |
| RpS25 (Ribosomal protein S25) | DRSC16837 | 47363 | 35700 |
| CG33777 | DRSC08107 | 1.30e5 | 30280 |
| Prosalpha3 (Proteasome alpha3 subunit) | DRSC04644 | 52330 | 46470 |
| Eig71Ee (Ecdysone-induced gene 71Ee) | DRSC11152 | 69097 | 63217 |
| CG1113 | DRSC12163 | 71060 | 83340 |
| Neto (Neuropilin and tolloid-like) | DRSC18982 | 2.37e5 | 2.46e5 |
| Neto (Neuropilin and tolloid-like) | DRSC19716 | 3.97e5 | 3.17e5 |
| Neto (Neuropilin and tolloid-like) | DRSC19717 | 3.37e5 | 3.77e5 |
| Ace (Acetylcholine esterase) | DRSC12959 | 1.47e5 | 1.39e5 |
| Ace (Acetylcholine esterase) | DRSC14100 | 44370 | 21127 |
| sima (similar) | DRSC17055 | 20140 | 27260 |
| rnh1 (ribonuclease H1) | DRSC07673 | 39000 | 74447 |
| Trf4-2 (Topoisomerase related function 4-2) | DRSC15237 | 62900 | 60470 |
| Gr28a (Gustatory receptor 28a) | DRSC02290 | 27803 | 40117 |
| ppk21 (pickpocket 21) | DRSC14466 | 67290 | 46560 |
| CG8306 | DRSC07141 | 46387 | 54637 |
| Cubn2 (Cubilin 2) | DRSC10561 | 69117 | 70870 |
| CG14965 | DRSC08424 | 39930 | 26310 |
| CG15731 | DRSC19698 | 3.98e5 | 3.45e5 |
| CG33459 | DRSC05615 | 1.54e5 | 98563 |
| CG12698 | DRSC19485 | 4.19e5 | 3.13e5 |
| Ranbp16 | DRSC20160 | 2.99e5 | 2.77e5 |
| CG7115 | DRSC02000 | 35757 | 62090 |

A portion from the list above:
| Target gene | dsRNA | raw ATP luminescence, replicate 1 | raw ATP luminescence, replicate 2 |
| --- | --- | --- | --- |
| Pef (Peflin) | DRSC06695 | 63290 | 58987 |
| Hacl (2-hydroxyacyl-CoA lyase) | DRSC06061 | 54947 | 55873 |
| CG14563 | DRSC11724 | 23943 | 63233 |
| ssp2 (short spindle 2) | DRSC11052 | 21250 | 21517 |
| CG14971 | DRSC08430 | 33187 | 32410 |
| Cpr97Ea (Cuticular protein 97Ea) | DRSC15974 | 51870 | 38930 |
| ND4 (retired record) | DRSC21269 | 3.24e5 | 2.85e5 |
| CG5023 | DRSC15697 | 35650 | 35420 |
